In patent publication US4218477A, “Primary aminoacylanilides, methods of making the same and use as antiarrhythmic drugs” (priority 1976, dated 1980):

Assay: Acute oral toxicity in mice (24 Hr. mortality)
Conditions: mouse, in vivo

SMILES: CCN(CC)CC(=O)Nc1c(C)cccc1C [Lidocaine, 2-diethylamino-2',6'-acetoxylidide]
- LD50 at 24 h: 224 mg/kg
